System: HeLa cells
Experiment: Cellular uptake by confocal microscopy
Type: cell-based, human
Settings: 10 μM, increasing incubation time

Row | SMILES | intracellular uptake (confocal microscopy)
1 | F[P-](F)(F)(F)(F)F.F[P-](F)(F)(F)(F)F.F[P-](F)(F)(F)(F)F.[C-]#[O+].[C-]#[O+].[C-]#[O+].[Re+].[Ru+2].c1ccc(-c2ccccn2)nc1.c1ccc(-c2ccccn2)nc1.c1ccc(-c2ccnc3c2ccc2c(-c4ccccc4)ccnc23)cc1.c1cnc2c(c1)c1nc(-c3ccncc3)[nH]c1c1cccnc12 [RuRe-1, [Ru(bpy)2LRe(CO)3(DIP)](PF6)3] | effectively penetrate into HeLa cells
2 | F[P-](F)(F)(F)(F)F.F[P-](F)(F)(F)(F)F.F[P-](F)(F)(F)(F)F.[C-]#[O+].[C-]#[O+].[C-]#[O+].[Re+].[Ru+2].c1ccc(-c2ccnc3c2ccc2c(-c4ccccc4)ccnc23)cc1.c1cnc2c(c1)c1nc(-c3ccncc3)[nH]c1c1cccnc12.c1cnc2c(c1)ccc1cccnc12.c1cnc2c(c1)ccc1cccnc12 [RuRe-2, [Ru(phen)2LRe(CO)3(DIP)](PF6)3] | effectively penetrate into HeLa cells
